Assay results reported in US7951811B2, “Pyrrolo[2,3-D]pyrimidine derivatives substituted with a cyclic amino group” (Taisho Pharmaceutical Co., Ltd., priority 2004, dated 2011).
Some of these results come from one statement about several compounds together.

Target: T1, CRF receptor (Macaca mulatta, UniProt Q76LL8)
T1 sequence (Q76LL8 24-415): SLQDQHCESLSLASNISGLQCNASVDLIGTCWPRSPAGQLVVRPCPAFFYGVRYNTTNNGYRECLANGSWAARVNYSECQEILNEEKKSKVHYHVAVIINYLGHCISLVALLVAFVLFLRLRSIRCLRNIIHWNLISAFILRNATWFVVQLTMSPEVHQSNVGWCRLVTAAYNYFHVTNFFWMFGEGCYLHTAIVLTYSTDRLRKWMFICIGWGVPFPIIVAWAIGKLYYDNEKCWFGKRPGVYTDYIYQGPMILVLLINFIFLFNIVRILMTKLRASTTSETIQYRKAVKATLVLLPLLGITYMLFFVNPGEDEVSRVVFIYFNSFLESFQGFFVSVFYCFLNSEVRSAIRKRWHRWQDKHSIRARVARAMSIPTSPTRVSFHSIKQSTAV
Assay: CRF receptor binding test (125I-CRF displacement)
Conditions: monkey amygdala membranes, 125I-CRF 0.2 nM, 25° C., 2 hours; read-out: IC50 (concentration at which binding of 125I-CRF is inhibited by 50%)

Structure (SMILES) | IC50 [nM]
Cc1cc(N2CCC(CCS(=O)(=O)O)CC2)c2c(C)cn(-c3c(C)cc(Br)cc3C)c2n1 [Compound 1-048, 2-{1-[1-(4-bromo-2,6-dimethyl-phenyl)-3,6-dimethyl-1H-pyrrolo[2,3-b]pyridin-4-yl]-piperidin-4-yl}-ethanesulfonic acid] | ≤ 100
Cc1cc(N2CCC(CCS(N)(=O)=O)CC2)c2c(C)cn(-c3c(C)cc(Br)cc3C)c2n1 [Compound 1-049, 2-{1-[1-(4-bromo-2,6-dimethyl-phenyl)-3,6-dimethyl-1H-pyrrolo[2,3-b]pyridin-4-yl]-piperidin-4-yl}-ethanesulfonic acid amide] | ≤ 100
CSc1cc(C(C)C)ccc1-n1cc(C)c2c(N3CCC(CC(=O)O)CC3)nc(C)nc21 [Compound 1-053, {1-[7-(4-isopropyl-2-methylsulfanyl-phenyl)-2,5-dimethyl-7H-pyrrolo[2,3-d]pyrimidin-4-yl]-piperidin-4-yl}-acetic acid] | ≤ 100
Cc1nc(N2CCC(CCCC(=O)O)CC2)c2c(C)c(C)n(-c3c(C)cc(Br)cc3C)c2n1 [Compound 1-056, 4-{1-[7-(4-bromo-2,6-dimethyl-phenyl)-2,5,6-trimethyl-7H-pyrrolo[2,3-d]pyrimidin-4-yl]-piperidin-4-yl}-butyric acid] | ≤ 100
Cc1nc(N2CCC(CC(N)=O)C(C)(C)C2)c2c(C)c(C)n(-c3c(C)cc(Br)cc3C)c2n1 (stereo not shown) [Compound 1-061, 2-{1-[7-(4-bromo-2,6-dimethyl-phenyl)-2,5,6-trimethyl-7H-pyrrolo[2,3-d]pyrimidin-4-yl]-3,3-dimethyl-piperidin-4-yl}-acetamide] | ≤ 100
Cc1cc(N2CCC(CC(=O)OCOC(=O)C(C)(C)C)CC2)c2c(C)cn(-c3c(C)cc(Br)cc3C)c2n1 [Compound 1-072, 2,2-dimethyl-propionic acid 2-{1-[1-(4-bromo-2,6-dimethyl-phenyl)-3,6-dimethyl-1H-pyrrolo[2,3-b]pyridin-4-yl]-piperidin-4-yl}-acetoxymethyl ester] | ≤ 100
CCOC(=O)[C@H](Cc1ccccc1)NC(=O)CC1CCN(c2cc(C)nc3c2c(C)cn3-c2c(C)cc(Br)cc2C)CC1 [Compound 1-073, (S)-2-(2-{1-[1-(4-bromo-2,6-dimethyl-phenyl)-3,6-dimethyl-1H-pyrrolo[2,3-b]pyridin-4-yl]-piperidin-4-yl}-acetylamino)-3-phenyl-propionic acid ethyl ester] | ≤ 100
